Target: T1, CD2068 (Clostridioides difficile, UniProt Q188D7)
T1 sequence (Q188D7 1-541): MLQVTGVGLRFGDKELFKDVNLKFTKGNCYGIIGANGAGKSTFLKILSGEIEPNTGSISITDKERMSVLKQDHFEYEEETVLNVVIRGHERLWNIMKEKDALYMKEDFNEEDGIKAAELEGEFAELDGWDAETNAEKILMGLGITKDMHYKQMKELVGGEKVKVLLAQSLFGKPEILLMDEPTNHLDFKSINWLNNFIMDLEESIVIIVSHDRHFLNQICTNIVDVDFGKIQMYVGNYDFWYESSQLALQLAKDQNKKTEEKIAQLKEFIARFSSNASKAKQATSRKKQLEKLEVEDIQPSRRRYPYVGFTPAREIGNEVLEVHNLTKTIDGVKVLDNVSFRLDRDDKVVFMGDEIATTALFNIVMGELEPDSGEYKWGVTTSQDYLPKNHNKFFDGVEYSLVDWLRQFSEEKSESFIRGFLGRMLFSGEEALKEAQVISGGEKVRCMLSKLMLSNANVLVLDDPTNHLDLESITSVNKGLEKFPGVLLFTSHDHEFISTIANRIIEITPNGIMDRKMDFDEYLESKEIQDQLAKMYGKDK
Assay: biochemical

Compound: CSc1ccc2c(c1)N(CCC1CCCCN1C)c1ccccc1S2 (stereo not shown) [thioridazine]
- Kd: 14.8 ± 7.6 µM
